Source: the supplement of paper PMC5949888
± gives the standard deviation of the averaged measurements. Most values lie at the floor of the assay. Slopes are relative: functional sequences can read slightly below zero.

The substances below were run on Saccharomyces cerevisiae PS128 hsf1 delta, HSF1(1-493) fusion (assay: growth estimate (transactivation domain function in HSF1 fusion, heat-shock survival) (a.u. (slope of normalised read count over time)); higher = stronger growth at 37°C, i.e. more transactivation activity). Details: library: random library.

Substance	growth estimate
GLKYPTRAFQRFFGYKVAWV	< -0.25
KFVNKYRVMIH	< -0.25
FLGLNAAGCDGWGTLAKAEG	< -0.25
ESANSGQCNGFPIHPLDRCP	< -0.25
LLVITLGVCRAH	< -0.25
EYRPRFGAATMCWQFWTNEM	< -0.25
GRCLPRQLLPRDHVQACAGA	< -0.25
TILKGGGLP	< -0.25
HLRSKTRCSEIRVNR	< -0.25
TCSSRSQREWRLLVEAGNNC	-0.25
VMGYVLGTFVTDVSLKIKIK	< -0.25
AGDTFG	< -0.25
EEITI	< -0.25
LTIVFPCSVKGCDPAVARYR	< -0.25
LSLVRSFAFVLVSYRRRFG	< -0.25
RGWVPSIGANWPYIDITVWS	< -0.25
KNA	< -0.25
VHL	< -0.25
IIGSKTR	< -0.25
NPEK	< -0.25
AGRHCYIVSCYSRVRFRRLQ	< -0.25
LGIQH	< -0.25
KHTTVLDQLKLIKHASCKVG	< -0.25
IMSERGSCLASQGWRRRRHL	< -0.25
GSNATQRQ	< -0.25

Substance	growth estimate
IGPTHIQRTRYAVSPSRDVG	< -0.25
AWSA	< -0.25
RIQVRRPRLRASIQAPITHQ	< -0.25
RLSSTCRNSVK	< -0.25
HFGAGLEPHLHPLQHDATCT	< -0.25
RRTARGITYVGIRRLHQAVS	< -0.25
LHPSLPPV	< -0.25
RLLSLRPPRAGWMRCRIPTA	< -0.25
GEALLEI	< -0.25
GWPGQEIKGKGTSRGQYTSF	< -0.25
VRQWQRTTGLGM	< -0.25
YSIVVHRNCRANAGCSS	< -0.25
DMRWSSC	< -0.25
MGTVRLSRT	< -0.25
DGVVLSLTARHRVCGTT	< -0.25
GTPYIKRLESAFFMSVDSRF	< -0.25
ECTSLVRPADVSRFVRILAS	< -0.25
IFTTGTDLSRVLASPLPDKI	< -0.25
PRALCRRVHNRIRKDSCLIY	< -0.25
YSNVNVRVVSKDRHSMGASI	< -0.25
MNLPEQFM	< -0.25
QELRECSGRQFIHLNRVLRK	< -0.25
AYSLFIVSPLSAKPVKAHML	< -0.25
QNVTTLAGNGCEKKFFIFGP	< -0.25
ITGQRSLSFRDGNIVLLGPY	< -0.25

Another view of part of the listing above:
Substance | growth estimate
YSNVNVRVVSKDRHSMGASI | < -0.25
MNLPEQFM | < -0.25

(listing goes on)

Substance	growth estimate
GSASNIGCGEPSYHGIPRCM	< -0.25
VYLELHAGADHSRTILVRRS	< -0.25
RITFVLRAESPLLNN	< -0.25
TWIVRTGFSVIRPRARVMES	< -0.25
CRSACWKGESFEDRKRLPMA	< -0.25
VASK	< -0.25
QPKGEDEV	-0.245
LVFCT	< -0.25
EAPLRTYYKVP	< -0.25
ADVLGIIPIKMRRNRGRPCL	< -0.25
GLKI	< -0.25
LASFEVLYASCPRRTDIRGS	< -0.25
TRNQRG	< -0.25
DAR	< -0.25
THSAW	< -0.25
VYRVLKSERS	< -0.25
VPRESGWVSTSVYSGASF	< -0.25
ACDNYRGITPRCVSTASRAA	< -0.25
VVYHRARSEGGRPMAKRRQR	< -0.25
AARSIQARGSFDRARF	< -0.25
FWGLYN	< -0.25
ALPIIKVSAIPHWEHAHE	< -0.25
KLLYCRRPWRTACVALVGWL	< -0.25
GLDWCVS	< -0.25
RVNNGSARMAAFRVAWVNCV	< -0.25

Some values from the results shown:
Value of RVNNGSARMAAFRVAWVNCV under growth estimate: < -0.25
Value of ACDNYRGITPRCVSTASRAA under growth estimate: < -0.25
Value of AARSIQARGSFDRARF under growth estimate: < -0.25

(continued)

Substance	growth estimate
QSWCRHRLTSRLRPSSLRAH	< -0.25
PYRLIEPSL	< -0.25
IRRSNVCWLGASAAIAPI	< -0.25
EQFKSLGDAEQEGNPKQFRF	-0.0573
EPDSAAAFDYGTSRDGLVNV	< -0.25
ILNSMDRDYFGAM	< -0.25
GKLNLRGGRIHITYTEMWLT	< -0.25
IRFAKDHRRGRGCAVTNGNG	< -0.25
KTFAVPRFLGLWGILG	< -0.25
TSCYRGCGGVFRRLLNVLGQ	< -0.25
TPVEPVNMTERVVRNAERGP	< -0.25
CKRMENYAECETLHR	< -0.25
GNFRRLECH	< -0.25
FPFDEIRRQMFS	< -0.25
GSYG	< -0.25
EPMTDKHVGLLT	< -0.25
LLS	< -0.25
PKQARPREHGR	< -0.25
RAKAIVTRPCFKPH	< -0.25
SCRCTTNREPGYLCPKA	< -0.25
SYKAGKQGHGPTWSGLT	< -0.25
RLQDFGSTRFKSH	< -0.25
GIGDPSRPSNSVCA	< -0.25
GARVGTVINT	< -0.25
PGEFGVDLGCLFCSSTTRAL	< -0.25

Substance	growth estimate
EEEYLAREVRKFLGG	< -0.25
VKESCGFAPFSRKNG	< -0.25
AINGNCLIPCCNDFYPRLRN	-0.25
SSKTASGSWTHGAQN	< -0.25
KRSLAVGSTIFRGLRTKKLD	< -0.25
YPVVIKERSGP	< -0.25
SFSAKPFLRRYVRSD	< -0.25
LCR	< -0.25
YPSTLVQSWVIAVWSVTTKH	< -0.25
NWN	< -0.25
SKL	< -0.25
HRGPLLLPVRG	< -0.25
TSQPEQGEQSRIRASV	< -0.25
WAG	< -0.25
VAM	< -0.25
GTLESSRSQQSS	< -0.25
LLHLERVLKFQALGCLKVRC	-0.243
NKEVFPPLPDY	< -0.25
ALYVTRVSCRRVLHATIY	< -0.25
IRSGVRGGQIQGPSLFIGPP	< -0.25
ATVTCYNLMIEEAGALESYG	< -0.25
SMGPYSGCCKVWVHKLIL	< -0.25
IAEKFWAS	< -0.25
EGNRVASIYLHWLYRALNRR	< -0.25
PIRCR	< -0.25

Substance	growth estimate
FRAYPADCLRLQG	< -0.25
RIWDQVEVCSQVTLI	< -0.25
DMHTNHLKLYDSTRLPSSTG	< -0.25
SAADSGKQETALNAPRTRSF	< -0.25
THIGKYE	< -0.25
PRENRTLFVANGPISGATAA	< -0.25
GTRYAHTR	< -0.25
GPEHDYCISPDI	< -0.25
RLS	-0.244 ± 0.011
LDQDRPGAVIPDRPVFKCHS	< -0.25
REIRLVGTT	< -0.25
PTFLPVTECGRRALWSGDVV	< -0.25
PRYWNMGVCVRIRIAGVSKG	< -0.25
RPWRSRWPRRCVRSRGADGA	< -0.25
GVKLGHF	< -0.25
RGNCSEDRHRIGRSRYGREM	< -0.25
HKGRRGLLVARAVSWPVAQQ	< -0.25
LWGGFEFVRPTDCARS	< -0.25
SRQAR	< -0.25
SESHLLMFASR	< -0.25
WDAHAANRIRLWGSGLAVER	< -0.25
YSLESKPWASLY	< -0.25
SLSA	-0.23
RMHKAPLCNGRPSR	< -0.25
LLREISVWVQAFW	< -0.25

Substance	growth estimate
SCLTVGQEGIGTSSEANEAG	< -0.25
GNGLLRRNTSSYVAWVVTLG	< -0.25
HVEAGGDAATGLYVSAGAWL	< -0.25
GLIAKSTVGASRPHVPKHRD	< -0.25
SSS	< -0.25
GGVGTCLLRKH	< -0.25
CLPRVAWLSNTFLRSKTPCR	< -0.25
TDVESSCERM	< -0.25
CYLFYMHT	< -0.25
RTVRSQRVSQPLKPFHLRSR	< -0.25
VVNFERPMEPTGYQFWQGSW	< -0.25
HALCGGLPCKYNYYGGCV	< -0.25
IQLEDLAKKKRKDRHVSTPL	< -0.25
ASMTGLGLLWGIRPAAYPGL	< -0.25
LSP	< -0.25
SAIC	< -0.25
LVLCT	-0.245
PHCSIVSECQLEVRNQSITF	< -0.25
TPSSRTSQNCRLDRKNIYPP	< -0.25
HRVFTVLGTHTILGSKTSRC	-0.248
WINLVTRGRLECVCRPIVR	< -0.25
SLYANSESSPFNPVLTQGCK	< -0.25
VPRFWPADTHSFGYSI	< -0.25
LCESTTRFSNWTS	< -0.25
HMTTRTAILRT	< -0.25

Substance	growth estimate
PVLSGKPTHVCYIPEVRMDL	< -0.25
QLATSRFRSV	< -0.25
YLLMRPVCEPSTT	< -0.25
HIGRKVSFRWSRSDCRSIPV	< -0.25
LACQGSQ	< -0.25
ILSYSAMCMNIRVLLGVRSM	< -0.25
TRLRVRPFVSA	< -0.25
RGRDRMFKLQGFVHTKGLAP	< -0.25
DIG	< -0.25
CIRVPILMSNDTARKWCIVR	< -0.25
QCVVKLCATEEACCLG	< -0.25
SGVRVNDRHGIRSCRIAEEE	< -0.25
TGVRRGMFTGSLSHRYSRSR	< -0.25
GVPSRP	< -0.25
IGPCVACSTESDRVSTVPTY	< -0.25
PWVVSRDSFVKIGLTTYPYA	< -0.25
STSECLG	< -0.25
TVTADPCETCLK	< -0.25
PSEIASVLQTVNNCLQGV	< -0.25
PQSPSTWNFVRGP	< -0.25
HDGTAVPYLRGAPPAVMYTA	< -0.25
DLGNRCNDLYGRL	< -0.25
EATGRDNPALARSPKMRIRQ	< -0.25
KHSPFHS	< -0.25
LFGGPPGGVGELRPLVLSTL	< -0.25

Copied from above (2 entries):
Substance	growth estimate
IGPCVACSTESDRVSTVPTY	< -0.25
PWVVSRDSFVKIGLTTYPYA	< -0.25
